{"source": "ChEMBL document CHEMBL1157379", "about": "“Transcriptional response of Candida parapsilosis following exposure to farnesol” (2007)", "type_in_all_cases": "functional", "key": {"Candida parapsilosis [1]": {"test_system": "Candida parapsilosis", "assay": "Increase in RPN1 gene expression in Candida parapsilosis CLIB214 at 50 uM after 2 hrs by microarray based transcriptional profiling relative to control"}, "Candida parapsilosis [2]": {"test_system": "Candida parapsilosis", "assay": "Increase in HTS1 gene expression in Candida parapsilosis CLIB214 at 50 uM after 2 hrs by microarray based transcriptional profiling relative to control"}, "Candida parapsilosis [3]": {"test_system": "Candida parapsilosis", "assay": "Increase in CGD gene ortholog accession number orf19.5771 expression in Candida parapsilosis CLIB214 at 50 uM after 2 hrs by microarray based transcriptional profiling relative to control"}, "Candida parapsilosis [4]": {"test_system": "Candida parapsilosis", "assay": "Increase in VPS4 gene expression in Candida parapsilosis CLIB214 at 50 uM after 2 hrs by microarray based transcriptional profiling relative to control"}, "Candida parapsilosis [5]": {"test_system": "Candida parapsilosis", "assay": "Decrease in CGD gene ortholog accession number orf19.4911 expression in Candida parapsilosis CLIB214 at 50 uM after 2 hrs by microarray based transcriptional profiling relative to control"}, "Candida parapsilosis [6]": {"test_system": "Candida parapsilosis", "assay": "Decrease in PTC4 gene expression in Candida parapsilosis CLIB214 at 50 uM after 2 hrs by microarray based transcriptional profiling relative to control"}, "Candida parapsilosis [7]": {"test_system": "Candida parapsilosis", "assay": "Decrease in CGD gene ortholog accession number orf19.5129 expression in Candida parapsilosis CLIB214 at 50 uM after 2 hrs by microarray based transcriptional profiling relative to control"}, "Candida parapsilosis [8]": {"test_system": "Candida parapsilosis", "assay": "Decrease in CGD gene ortholog accession number orf19.1976 expression in Candida parapsilosis CLIB214 at 50 uM after 2 hrs by microarray based transcriptional profiling relative to control"}, "Candida parapsilosis [9]": {"test_system": "Candida parapsilosis", "assay": "Decrease in CYB2 gene expression in Candida parapsilosis CLIB214 at 50 uM after 2 hrs by microarray based transcriptional profiling relative to control"}, "Candida parapsilosis [10]": {"test_system": "Candida parapsilosis", "assay": "Decrease in CGD gene ortholog accession number orf19.3356 expression in Candida parapsilosis CLIB214 at 50 uM after 2 hrs by microarray based transcriptional profiling relative to control"}, "Candida parapsilosis [11]": {"test_system": "Candida parapsilosis", "assay": "Reduction in NPL4 gene expression in Candida parapsilosis CLIB214 by RT-PCR"}, "Candida parapsilosis [12]": {"test_system": "Candida parapsilosis", "assay": "Increase in CGD gene ortholog accession number orf19.4801 expression in Candida parapsilosis CLIB214 at 50 uM after 2 hrs by microarray based transcriptional profiling relative to control"}, "Candida parapsilosis [13]": {"test_system": "Candida parapsilosis", "assay": "Decrease in SGS1 gene expression in Candida parapsilosis CLIB214 at 50 uM after 2 hrs by microarray based transcriptional profiling relative to control"}, "Candida parapsilosis [14]": {"test_system": "Candida parapsilosis", "assay": "Decrease in CGD gene ortholog accession number orf19.1219 expression in Candida parapsilosis CLIB214 at 50 uM after 2 hrs by microarray based transcriptional profiling relative to control"}, "Candida parapsilosis [15]": {"test_system": "Candida parapsilosis", "assay": "Decrease in CGD gene ortholog accession number orf19.5755 expression in Candida parapsilosis CLIB214 at 50 uM after 2 hrs by microarray based transcriptional profiling relative to control"}, "Candida parapsilosis [16]": {"test_system": "Candida parapsilosis", "assay": "Increase in HTA3 gene expression in Candida parapsilosis CLIB214 at 50 uM after 2 hrs by microarray based transcriptional profiling relative to control"}, "Candida parapsilosis [17]": {"test_system": "Candida parapsilosis", "assay": "Increase in ALR1 gene expression in Candida parapsilosis CLIB214 at 50 uM after 2 hrs by microarray based transcriptional profiling relative to control"}, "Candida parapsilosis [18]": {"test_system": "Candida parapsilosis", "assay": "Increase in CGD gene ortholog accession number orf19.1642 expression in Candida parapsilosis CLIB214 at 50 uM after 2 hrs by microarray based transcriptional profiling relative to control"}, "Candida parapsilosis [19]": {"test_system": "Candida parapsilosis", "assay": "Increase in CDC42 gene expression in Candida parapsilosis CLIB214 at 50 uM after 2 hrs by microarray based transcriptional profiling relative to control"}, "Candida parapsilosis [20]": {"test_system": "Candida parapsilosis", "assay": "Decrease in LEU42 gene expression in Candida parapsilosis CLIB214 at 50 uM after 2 hrs by microarray based transcriptional profiling relative to control"}, "Candida parapsilosis [21]": {"test_system": "Candida parapsilosis", "assay": "Decrease in CGD gene ortholog accession number orf19.4203 expression in Candida parapsilosis CLIB214 at 50 uM after 2 hrs by microarray based transcriptional profiling relative to control"}, "Candida parapsilosis [22]": {"test_system": "Candida parapsilosis", "assay": "Increase in CGD gene ortholog accession number orf19.5910 expression in Candida parapsilosis CLIB214 at 50 uM after 2 hrs by microarray based transcriptional profiling relative to control"}, "Candida parapsilosis [23]": {"test_system": "Candida parapsilosis", "assay": "Increase in FMP45 gene expression in Candida parapsilosis CLIB214 at 50 uM after 2 hrs by microarray based transcriptional profiling relative to control"}, "Candida parapsilosis [24]": {"test_system": "Candida parapsilosis", "assay": "Increase in CGD gene ortholog accession number orf19.1747 expression in Candida parapsilosis CLIB214 at 50 uM after 2 hrs by microarray based transcriptional profiling relative to control"}, "Candida parapsilosis [25]": {"test_system": "Candida parapsilosis", "assay": "Increase in CGD gene ortholog accession number orf19.5612 expression in Candida parapsilosis CLIB214 at 50 uM after 2 hrs by microarray based transcriptional profiling relative to control"}, "Candida parapsilosis [26]": {"test_system": "Candida parapsilosis", "assay": "Decrease in CGD gene ortholog accession number orf19.6602 expression in Candida parapsilosis CLIB214 at 50 uM after 2 hrs by microarray based transcriptional profiling relative to control"}, "Candida parapsilosis [27]": {"test_system": "Candida parapsilosis", "assay": "Decrease in PCK1 gene expression in Candida parapsilosis CLIB214 at 50 uM after 2 hrs by microarray based transcriptional profiling relative to control"}, "Candida parapsilosis [28]": {"test_system": "Candida parapsilosis", "assay": "Decrease in CGD gene ortholog accession number orf19.3815 expression in Candida parapsilosis CLIB214 at 50 uM after 2 hrs by microarray based transcriptional profiling relative to control"}, "Candida parapsilosis [29]": {"test_system": "Candida parapsilosis", "assay": "Decrease in PHO91 gene expression in Candida parapsilosis CLIB214 at 50 uM after 2 hrs by microarray based transcriptional profiling relative to control"}, "Candida parapsilosis [30]": {"test_system": "Candida parapsilosis", "assay": "Decrease in CGD gene ortholog accession number orf19.3655 expression in Candida parapsilosis CLIB214 at 50 uM after 2 hrs by microarray based transcriptional profiling relative to control"}, "Candida parapsilosis [31]": {"test_system": "Candida parapsilosis", "assay": "Decrease in CGD gene ortholog accession number orf19.5586 expression in Candida parapsilosis CLIB214 at 50 uM after 2 hrs by microarray based transcriptional profiling relative to control"}, "Candida parapsilosis [32]": {"test_system": "Candida parapsilosis", "assay": "Decrease in INT1 gene expression in Candida parapsilosis CLIB214 at 50 uM after 2 hrs by microarray based transcriptional profiling relative to control"}, "Candida parapsilosis [33]": {"test_system": "Candida parapsilosis", "assay": "Decrease in CGD gene ortholog accession number orf19.4637 expression in Candida parapsilosis CLIB214 at 50 uM after 2 hrs by microarray based transcriptional profiling relative to control"}, "Candida parapsilosis [34]": {"test_system": "Candida parapsilosis", "assay": "Decrease in PTR2 gene expression in Candida parapsilosis CLIB214 at 50 uM after 2 hrs by microarray based transcriptional profiling relative to control"}, "Candida parapsilosis [35]": {"test_system": "Candida parapsilosis", "assay": "Decrease in CGD gene ortholog accession number orf19.7387 expression in Candida parapsilosis CLIB214 at 50 uM after 2 hrs by microarray based transcriptional profiling relative to control"}, "Candida parapsilosis [36]": {"test_system": "Candida parapsilosis", "assay": "Increase in CGD gene ortholog accession number orf19.5897 expression in Candida parapsilosis CLIB214 at 50 uM after 2 hrs by microarray based transcriptional profiling relative to control"}, "Candida parapsilosis [37]": {"test_system": "Candida parapsilosis", "assay": "Increase in CGD gene ortholog accession number orf19.1195 expression in Candida parapsilosis CLIB214 at 50 uM after 2 hrs by microarray based transcriptional profiling relative to control"}}, "note": "The source gives many values for each of these; only a part stands here.", "data": [{"smiles": "CC(C)=CCC/C(C)=C/CC/C(C)=C/CO", "note": "[FARNESOL]", "values": [{"measurement": "fold change (FC)", "setting": "Candida parapsilosis [1]", "value": 2.21}, {"measurement": "fold change (FC)", "setting": "Candida parapsilosis [2]", "value": 2.19}, {"measurement": "fold change (FC)", "setting": "Candida parapsilosis [3]", "value": 1.59}, {"measurement": "fold change (FC)", "setting": "Candida parapsilosis [4]", "value": 1.58}, {"measurement": "fold change (FC)", "setting": "Candida parapsilosis [5]", "value": 1.97}, {"measurement": "fold change (FC)", "setting": "Candida parapsilosis [6]", "value": 2.16}, {"measurement": "fold change (FC)", "setting": "Candida parapsilosis [7]", "value": 2.19}, {"measurement": "fold change (FC)", "setting": "Candida parapsilosis [8]", "value": 2.2}, {"measurement": "fold change (FC)", "setting": "Candida parapsilosis [9]", "value": 2.32}, {"measurement": "fold change (FC)", "setting": "Candida parapsilosis [10]", "value": 2.08}, {"measurement": "fold change (FC)", "setting": "Candida parapsilosis [11]", "value": 1.53}, {"measurement": "fold change (FC)", "setting": "Candida parapsilosis [12]", "value": 1.55}, {"measurement": "fold change (FC)", "setting": "Candida parapsilosis [13]", "value": 1.59}, {"measurement": "fold change (FC)", "setting": "Candida parapsilosis [14]", "value": 1.6}, {"measurement": "fold change (FC)", "setting": "Candida parapsilosis [15]", "value": 1.66}, {"measurement": "fold change (FC)", "setting": "Candida parapsilosis [16]", "value": 1.9}, {"measurement": "fold change (FC)", "setting": "Candida parapsilosis [17]", "value": 1.9}, {"measurement": "fold change (FC)", "setting": "Candida parapsilosis [18]", "value": 1.82}, {"measurement": "fold change (FC)", "setting": "Candida parapsilosis [19]", "value": 1.82}, {"measurement": "fold change (FC)", "setting": "Candida parapsilosis [20]", "value": 1.88}, {"measurement": "fold change (FC)", "setting": "Candida parapsilosis [21]", "value": 1.93}, {"measurement": "fold change (FC)", "setting": "Candida parapsilosis [22]", "value": 1.69}, {"measurement": "fold change (FC)", "setting": "Candida parapsilosis [23]", "value": 1.64}, {"measurement": "fold change (FC)", "setting": "Candida parapsilosis [24]", "value": 1.64}, {"measurement": "fold change (FC)", "setting": "Candida parapsilosis [25]", "value": 1.62}, {"measurement": "fold change (FC)", "setting": "Candida parapsilosis [26]", "value": 2.37}, {"measurement": "fold change (FC)", "setting": "Candida parapsilosis [27]", "value": 3.36}, {"measurement": "fold change (FC)", "setting": "Candida parapsilosis [28]", "value": 1.64}, {"measurement": "fold change (FC)", "setting": "Candida parapsilosis [29]", "value": 1.69}, {"measurement": "fold change (FC)", "setting": "Candida parapsilosis [30]", "value": 1.7}, {"measurement": "fold change (FC)", "setting": "Candida parapsilosis [31]", "value": 1.75}, {"measurement": "fold change (FC)", "setting": "Candida parapsilosis [32]", "value": 1.77}, {"measurement": "fold change (FC)", "setting": "Candida parapsilosis [33]", "value": 1.78}, {"measurement": "fold change (FC)", "setting": "Candida parapsilosis [34]", "value": 1.81}, {"measurement": "fold change (FC)", "setting": "Candida parapsilosis [35]", "value": 1.87}, {"measurement": "fold change (FC)", "setting": "Candida parapsilosis [36]", "value": 1.61}, {"measurement": "fold change (FC)", "setting": "Candida parapsilosis [37]", "value": 1.6}]}]}
